The chains are these.
T1: STING (bait of the mass spectrometry of STING-binding proteins) (UniProt Q3TBT3)
T1 sequence: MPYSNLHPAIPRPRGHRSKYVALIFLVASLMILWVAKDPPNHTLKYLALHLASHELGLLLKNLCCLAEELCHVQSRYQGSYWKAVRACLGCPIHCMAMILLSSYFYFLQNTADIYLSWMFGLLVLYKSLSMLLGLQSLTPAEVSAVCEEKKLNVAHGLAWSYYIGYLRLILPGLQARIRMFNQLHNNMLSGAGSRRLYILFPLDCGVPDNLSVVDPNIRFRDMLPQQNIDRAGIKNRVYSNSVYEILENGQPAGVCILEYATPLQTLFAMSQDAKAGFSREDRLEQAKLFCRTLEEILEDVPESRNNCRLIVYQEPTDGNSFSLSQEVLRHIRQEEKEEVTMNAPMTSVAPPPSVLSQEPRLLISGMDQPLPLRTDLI

B1: Lpcat1 (protein, UniProt Q3TFD2 1-534)
chain: MRLRGRGPRAAPSSSSGAGDARRLAPPGRNPFVHELRLSALQKAQVAFMTLTLFPIRLLFAAFMMLLAWPFALLASLGPPDKEPEQPLALWRKVVDFLLKAIMRTMWFAGGFHRVAVKGRQALPTEAAILTLAPHSSYFDAIPVTMTMSSIVMKAESRDIPIWGTLIRYIRPVFVSRSDQDSRRKTVEEIKRRAQSNGKWPQIMIFPEGTCTNRTCLITFKPGAFIPGVPVQPVVLRYPNKLDTITWTWQGPGALKILWLTLCQFQNQVEIEFLPVYCPSEEEKRNPALYASNVRRVMAKALGVSVTDYTFEDCQLALAEGQLRLPADTCLLEFARLVRGLGLKPENLEKDLDKYSESARMKRGEKIRLPEFAAYLEVPVSDALEDMFSLFDESGGGEIDLREYVVALSVVCRPSQTLATIQLAFKMYGSPEDGSIDEANLSCILKTALGVSELTVTDLFQAIDQEDKGRITFDDFCGFAEMYPDYAEDYLYPDQTHFDSCAQTPPAPTPNGFCIDFSPENSDFGRKNSCKKAD
B2: Hacd3 (protein, UniProt Q8K2C9 1-362)
chain: METQVLTPHVYWAQRHRELYLRVELSDVQNPAISITDNVLHFKAQGHGAKGDNVYEFHLEFLDLVKPEPAYRLTQRQVNITVQKKGSHWWERLTKQEKRPLFLAPDFDRWLDESDAEMELRAKEEERLNKLRLEREGSPETLTNLKKGYLFMYNLVQLLGFSWIFVNLTVRFFILGKESFYDTFHNVADMMYFCQMLALVETLNAAIGVTSTPVLPALIQFLGRNFILFLVFGTMEEMQNKAVVFFVFYSWSAIEIFRYPFYMLSCIDMDWKVLTWLRYTMWIPLYPLGCLSEAVAVIQSIPVFNESGRFSFTLPYPVKMKVRFSFFLQVYLVMLFLGLYINFRHLYKQRRRRYGQKKKKLH
B3: Slc25a4 (protein, UniProt P48962 1-298)
chain: MGDQALSFLKDFLAGGIAAAVSKTAVAPIERVKLLLQVQHASKQISAEKQYKGIIDCVVRIPKEQGFLSFWRGNLANVIRYFPTQALNFAFKDKYKQIFLGGVDRHKQFWRYFAGNLASGGAAGATSLCFVYPLDFARTRLAADVGKGSSQREFNGLGDCLTKIFKSDGLKGLYQGFSVSVQGIIIYRAAYFGVYDTAKGMLPDPKNVHIIVSWMIAQSVTAVAGLVSYPFDTVRRRMMMQSGRKGADIMYTGTLDCWRKIAKDEGANAFFKGAWSNVLRGMGGAFVLVLYDEIKKYV
B4: Slc25a5 (protein, UniProt P51881 1-298)
chain: MTDAAVSFAKDFLAGGVAAAISKTAVAPIERVKLLLQVQHASKQITADKQYKGIIDCVVRIPKEQGVLSFWRGNLANVIRYFPTQALNFAFKDKYKQIFLGGVDKRTQFWRYFAGNLASGGAAGATSLCFVYPLDFARTRLAADVGKAGAEREFKGLGDCLVKIYKSDGIKGLYQGFNVSVQGIIIYRAAYFGIYDTAKGMLPDPKNTHIFISWMIAQSVTAVAGLTSYPFDTVRRRMMMQSGRKGTDIMYTGTLDCWRKIARDEGSKAFFKGAWSNVLRGMGGAFVLVLYDEIKKYT
B5: Mars (protein, UniProt Q68FL6 1-902)
chain: MRLFVSEGSPGSLPVLAAAARARGRAELLISTVGPEECVVPFLTRPKVPVLQLDSGNYLFSASAICRYFFLLCGWEQDDLTNQWLEWEATELQPVLSAALHCLVVQGKKGEDILGPLRRVLTHIDHSLSRQNCPFLAGDTESLADIVLWGALYPLLQDPAYLPEELGALQSWFQTLSTQEPCQRAAETVLKQQGVLALRLYLQKQPQPQPPPPEGRTVSNELEEEELATLSEEDIVTAVAAWEKGLESLPPLKLQQHPVLPVPGERNVLITSALPYVNNVPHLGNIIGCVLSADVFARYCRLRQWNTLYLCGTDEYGTATETKAMEEGLTPREICDKYHAIHADIYRWFGISFDTFGRTTTPQQTKITQDIFQRLLTRGFVLRDTVEQLRCERCARFLADRFVEGVCPFCGYEEARGDQCDRCGKLINAIELKKPQCKICRSCPVVRSSQHLFLDLPKLEKRLEDWLGKTVPGSDWTPNARFIIRSWLRDGLKPRCITRDLKWGTPVPLEGFEDKVFYVWFDATIGYVSITANYTDQWEKWWKNPEQVDLYQFMAKDNVPFHGLVFPCSVLGAEDNYTLVKHIIATEYLNYEDGKFSKSRGIGVFGDMAKDTGIPADIWRFYLLYIRPEGQDSAFSWTDLLIKNNSELLNNLGNFINRAGMFVSKFFGGCVPEMALTPDDRRLVAHVSWELQHYHQLLEKVRIRDALRSILTISRHGNQYIQVNEPWKRIKGGEMDRQRAGTVTGMAVNMAALLSVMLQPYMPTVSSTIQTQLQLPPAACRILATSFICTLPAGHRIGTVSPLFQKLENDQIENLRQRFGGGQAKGSPKPAAVEAVTAAGSQHIQTLTDEVTKQGNVVRELKAQKADKNQVAAEVAKLLDLKKQLALAEGKPIETPKGKKKK
B6: Ablim1 (protein, UniProt Q8K4G5 1-861)
chain: MPSLLGLKCLGKLCSSEIGKVPSPERASLRNSHRRLLIEDLSVPETPDPAHRRRGTVIHLVYLYSAGCGPPELRFSSYDPSVAHPQDPHHSSEKPVIHCHKCGEPCKGEVLRVQTKHFHIKCFTCKVCGCDLAQGGFFIKNGDYLCTLDYQRMYGTRCHGCGEFVEGEVVTALGKTYHPNCFACTICKRPFPPGDRVTFNGRDCLCQLCAQPMSSSPKEASCSSNCAGCGRDIKNGQALLALDKQWHLGCFKCKSCGKVLTGEYISKDGSPYCEKDYQGLFGVKCEACHQFITGKVLEAGDKHYHPSCARCSRCNQMFTEGEEMYLQGSTVWHPDCKQSTKTEEKLRPPNIPRSSSDFFYPKSLIRRTGRSPALQLLSPPCLTNSNKNPRQPTRTSSESIYSRPGSSIPGSPGHTIYAKVDNEILDYKDLAAIPKVKAIYDIERPDLITYEPFYTSGYEDKQERQSLGESPRTLSPTPSAEGYQDVRDRMIHRSTSQGSINSPVYSRHSYTPTTSRSPQHFHRPELLSPGVHRWSPLRTSSFSSTHSDSRPNPPFRHHFLPHVKGNEPSSGRNSPLPYRPDSRPLTPTYAQAPKHFHVPDQGINIYRKPPIYKQHAALAAQSKASEDIIKFSKFPAAQAPDPNEIPKIETDHWPGPPSLAAVGTDPRRRSSGREEDEEELLRRRQLQEEQLMKLNSGLGQLILKEEMEKESRERASLASRYDSPLHSASHAPSSKTSSLPGYGKNGLHRPVSTDFAQYNSYGDISGGVRDYQTLPDGHMPAVRMDRGVSMPNMLEPKIFPYEMLMVTNRGRNKILRDVDRTRLERHLAPEVFWEIFGMSIQEFDKLPLWRRNDMKKKAKLF
B7: Ncln (protein, UniProt Q8VCM8 43-563)
chain: AHEFTVYRMQQYDLQGQPYGTRNAVLNTEARTVDADVLSRRCVLMRLLDFSYEHYQKALRQSAGAVVIILPRAMAAVPQDVVRQFMEIEPEMLAMETVVPVYFAVEDEALLSIYEQTQAASASQGSASAAEVLLHTATANGFQMVTSGAQSQAVSDWLITSVEGRLTGLGGEDLPTIVIVAHYDAFGVAPWLSLGADSNGSGISVLLELARLFSRLYTYKRTHAAYNLLFFASGGGKFNYQGTKRWLEDSLDHTDSSLLQDNVAFVLCLDTVGRGSHLRLHVSKPPREGTLQHAFLRELETVAAHQFPDVSFSMVHKKINLADDVLAWEHERFAIRRLPAFTLSHLESHRAGPRSSIMDVRSRVDSKTLTRNTRIIAEALTRVIYNLTEKGTPPDMPVFTEQMQVQEEQIDSVMDWLTNQPRAAQLLDKDGTFLSTLEHFLSRYLKDVRQHHVKADKRDPEFVFYDQLKQVMNAYRVKPAIFDLLLALCIGAYLGMAYTAVQHFHVLYKTVQRLLLKAKAQ
B8: Hsd17b12 (protein, UniProt O70503 1-312)
chain: MECAPPAAGFLYWVGASTIAYLALRASYSLFRAFQVWCVGNEALVGPRLGEWAVVTGGTDGIGKAYAEELAKRGMKIVLISRSQDKLNQVSNNIKEKFNVETRTIAVDFSLDDIYDKIKTGLSGLEIGVLVNNVGMSYEYPEYFLEIPDLDNTIKKLININVLSVCKVTRLVLPGMVERSKGVILNISSASGMLPVPLLTIYSATKAFVDFFSQCLHEEYKSKGIFVQSVMPYLVATKLAKIQKPTLDKPSAETFVKSAIKTVGLQTRTTGYVIHSLMGSINSIMPRWMYFKIIMGFSKSLRNRYLKKRKKN
B9: H13 (protein, UniProt Q9D8V0 1-378)
chain: MDSAVSDPHNGSAEAGTPANGTTRPPSTPEGIALAYGSLLLMALLPIFFGALRSVRCARGKSSSDMPETITSRDAARFPIIASCTLLGLYLFFKIFSQEYINLLLSMYFFVLGILALSHTISPFMNKFFPANFPNRQYQLLFTQGSGENKEEIINYEFDTKDLVCLGLSSVVGVWYLLRKHWIANNLFGLAFSLNGVELLHLNNVSTGCILLGGLFIYDIFWVFGTNVMVTVAKSFEAPIKLVFPQDLLEKGLEADNFAMLGLGDIVIPGIFIALLLRFDISLKKNTHTYFYTSFAAYIFGLGLTIFIMHIFKHAQPALLYLVPACIGFPVLVALAKGEVAEMFSYEESNPKDPAAETESKEESTEASASKRLEKKEK
B10: Myl12a (protein, UniProt Q6ZWQ9 1-172)
chain: MSSKRAKTKTTKKRPQRATSNVFAMFDQSQIQEFKEAFNMIDQNRDGFIDKEDLHDMLASMGKNPTDEYLDAMMNEAPGPINFTMFLTMFGEKLNGTDPEDVIRNAFACFDEEAIGTIQEDYLRELLTTMGDRFTDEEVDELYREAPIDKKGNFNYIEFTRILKHGAKDKDD
B11: Clptm1l (protein, UniProt Q8BXA5 1-539)
chain: MWSGRSSFTSLVVGVFLVYVVHTCWVMYGIVYTRPCSGDSNCIQPYLALRPKLQLSVYTTTRSSLGAENNVDLILNVEDFDVDSKFERTVNVSVPKKTRNNGTLYAYIFLHHAGILPWQDGKQVHVVSTLTTYMIPKPEEINLLTGESATQQQIEAEKKPSNALDEPVSHWRPRLTLNVMVDDFVFDGSSLPADVHRYMKMIQLGKTVHYLPILFIDQLSNRVKDLMVINRSTTELPLTVSYDKISLGRLRFWIHMQDAVYSLQQFGFSEKDADELKGIFVDTNLYLLALTFFVAAFHLLFDFLAFKSDISFWKKKKSMIGMSTKAVLWRCFSTVVIFLFLLDEQTSLLVLIPAGVGAAIELWKVKKALKITVAWRGLRPVFQFGTHSESERKTEKYDAQAMKYLSYLLYPLCVGGAVYSLLNIKYKSWYSWLINSFVNGVYAFGFLFMLPQLFVNYKMKSVAHLPWKAFTYKAFNTFIDDVFAFIITMPTSHRLACFRDDVVFLVYLYQRWLYPVDKSRVNEFGESYEEQPKRKPHPD

These are yes or no findings as the source states them, for the method shown. Binding seen in cells or lysates may run through a third protein. These calls come from enrichment with a bait or labelling near it, and not all partners need be listed.

For this test, the target named is T1, STING (bait of the mass spectrometry of STING-binding proteins). The test can be described thus: affinity purification with mass spectrometry; lysate (1% Triton X-100, 150 mM NaCl, pH 7.2) on anti-FLAG M2 Affinity Gel overnight at 4 °C, FLAG peptide elution, tryptic digest, LC-MS/MS.
For B1, the binding result was “binds”. As for B2, the entry is “binds”; as for B3, “binds”. Then B4, with “binds”. As for B5, the entry is “binds”; as for B6, “binds”; as for B7, “binds”. Turning to B8, the binding entry is recorded as “binds”.

Regarding B9, the binding result is “binds”. Then B10, with “binds”. Then B11, with “binds”.
